Experimental data taken from PMC4633014.
No constants are given. Whether binding was seen depends on the method and setting. Some entries that bind do so weakly or less than the wild type.

Protein sequences, listed by entry. Tags and fused reporters are not part of them. Residues count along the entry.
UniProt P61823, residues 27-150: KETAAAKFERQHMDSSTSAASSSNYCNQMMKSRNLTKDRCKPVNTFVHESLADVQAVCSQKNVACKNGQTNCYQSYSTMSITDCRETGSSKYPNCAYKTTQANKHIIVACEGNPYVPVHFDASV

Biological target: Ribonuclease B (RB) (UniProt P61823)
Experiment: peptide or protein array; antigens spotted in triplicate on nitrocellulose-coated glass slides; blocked with 1% BSA in PBS; stained at room temperature with biotinylated lectin in 1% BSA, PBS, 0.05% Tween 20; fluorescence read-out (MFI over background); both purified

B1: Galanthus nivalis lectin (GNA) (protein, UniProt P30617 20-128)
chain: SCLSDNILYSGETLSTGEFLNYGSFVFIMQEDCNLVLYDVDKPIWATNTGGLSRSCFLSMQTDGNLVVYNPSNKPIWASNTGGQNGNYVCILQKDRNVVIYGTDRWATG
modifications: biotin
Q: With B1 as the binder, how does the binding read?
A: binds
